## Primary screen of a compound library

The values are deposited in ChEMBL (CHEMBL3988442, “University of Dundee, Small-Polar-MMV Screening Library” (2021)).

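Assay of Toxoplasma gondii numbers, read through their beta-galactosidase reporter with a colour substrate. Compounds at 10 µM. The record gives no direction; the compounds picked for IC50 retests had high values, so higher reads as fewer parasites. Of about 67,000 compounds tested this way, about 260 (0.38%) reached 50% or more in at least one test.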

Each number is a percent effect as filed. The controls that fix the scale are not given in the record; negative values are as filed. Compounds were drawn at random from those tested, without regard to their results.

| compound | Percent Effect |
|---|---|
| `COc1ccc(CN(C)[C@@H]2CN(C(=O)c3cncs3)C[C@H]2O)cc1` | -15.91% |
| `CCC[C@H]1CN(Cc2ccc3c(c2)OCCO3)C[C@@H]1NC(=O)COC` | -7.948% |
| `CC(C)N(Cc1ccccn1)C(=O)CCOc1cccc(F)c1` | 0.3442% |
| `CCN(CCOC)C(=O)c1ccc2c(c1)nc(N1CC[C@H](O)C1)n2C` | -23.68% |
| `COc1ccc(-c2nc(C#N)c(N(C)C)o2)cc1S(=O)(=O)N1CCCC1` | -14.94% |
| `CCOCC1CN(S(=O)(=O)Cc2ccccc2)Cc2nccn2C1` (centres undefined) | -3.899% |
| `CCCS(=O)(=O)N1CCC2(CCCN(c3ncc(F)cn3)C2)C1` (centres undefined) | -8.727% |
| `COc1nccnc1N1CCC2(CC1)C(=O)N(C)c1ccccc12` | -10.18% |
| `CNC(=O)c1ccc2c(c1)C1(CCN(C(C)C)CC1)C(=O)N2.O=C(O)C(F)(F)F` | 1.04% |
| `O=C(CN1CCSCC1c1ccccc1)N1CCOCC1` (centres undefined) | -25.06% |
| `O=C(O)C(F)(F)F.O=C(O)C(F)(F)F.[H][C@]12CCC[C@@]1(COc1ccccn1)CN(Cc1cnn(C)c1)C2` | -5.835% |
| `CN(C)C(CNCc1nc(-c2ccsc2)no1)c1ccco1` (centres undefined) | -0.1193% |
| `CC(C)NC(=O)C1CN(Cc2cccs2)Cc2ccnn2C1` (centres undefined) | 11.34% |
| `CCSc1ncc(CN2CCN(c3ccc(C#N)cc3)C(=O)C2)cn1` | -21.25% |
| `CN(C)c1ncc(CNS(=O)(=O)c2cc(F)ccc2Cl)n1C` | -0.3751% |
| `O=C(O)c1ccnc(SCc2ccccc2)c1` | 0.5831% |
| `COc1ncccc1CNC(=O)c1cccnc1O` | -4.586% |
| `CCOCC(O)CN1CCN(C(=O)c2cccc(CC#N)c2)CC1` (centres undefined) | -5.076% |
| `CC(NCc1ccccn1)c1ccc(N2CCN(C)CC2)c(F)c1` (centres undefined) | 2.854% |
| `O=C(NCCc1nc(-c2cccnc2)no1)c1ccc(C2CCCO2)s1` (centres undefined) | 5.37% |
| `COCCN1C[C@@H](C)[C@@]2(COCCN(C(=O)c3ccno3)C2)C1.O=C(O)C(F)(F)F` | 0.8621% |
| `O=C(O)C(F)(F)F.O=C(O)C(F)(F)F.[H][C@@]12CCN(C)[C@@]1([H])CCN2Cc1cc(C)c(C)o1` | -15.99% |
| `Cc1ccc(O)c(CN2CCc3nc(-c4cccnc4)nc(O)c3C2)c1` | -17.73% |
| `C[S+]([O-])CCCNCc1cc(F)ccc1Br` (centres undefined) | 10.51% |
| `Cc1csc(CN2CCn3c(COc4cccnc4)cnc3C2C)n1.O=C(O)C(F)(F)F.O=C(O)C(F)(F)F` (centres undefined) | -66.78% |
| `COc1c(CNCCNC(=O)c2ccccc2)c(C)nn1C.Cl` | 2.84% |
| `Cc1nc(NCCSc2nnc(C)s2)c2cccnc2n1` | 0.9363% |
| `N#Cc1cnc(NCc2cccc(C(=O)N3CCCC3)c2)c(Cl)c1` | -11.32% |
| `COc1ccc(CC(=O)N2CC[C@H](CO)[C@H](O)C2)c(OC)c1` | -5.322% |
| `CC(C)N1CCN(C)C2(CCN(C(=O)c3ccnnc3)CC2)C1=O` | 8.504% |
| `CCc1oc(C(=O)OC)cc1Cn1cccc(C(F)(F)F)c1=O` | -45.66% |
| `CC(C)(CNC(=O)C1CCCN1S(C)(=O)=O)N1CCOCC1` (centres undefined) | 1.876% |
| `Cc1cnc(C)c(N2CCC(C(=O)O)(n3ccc(C(C)(C)C)n3)CC2)n1` | 35.7% |
| `CN(C)CC(=O)N1CCC2(CCc3cc(-c4cccnc4)ccc32)CC1.O=C(O)C(F)(F)F.O=C(O)C(F)(F)F` | 3.407% |
| `CC1CN(c2ncccc2C(=O)N[C@@H]2CCCc3ccccc32)CCN1` (some centres undefined) | -3.953% |
| `Br.Cc1ccc(OCCSC2=NCCN2)cc1` | 0.1729% |
| `CS(=O)(=O)C1CCN(S(=O)(=O)c2ccc(F)c(F)c2)C1` (centres undefined) | 5.456% |
| `Cc1cc(-c2cc(N)c(=O)n(CC(=O)N3CCCC(C)C3)n2)c(C)o1` (centres undefined) | 6.356% |
| `Cc1ccc2nc(-c3nc4c([nH]3)CC(C)(C)CNC4=O)cn2c1` | -4.083% |
| `O=C(Cn1nc(-c2ccc(F)cc2)oc1=O)Nc1ccccc1` | -17.08% |
| `COCc1cc(NCc2cccnc2Oc2ccc(C)nc2)ncn1` | -4.909% |
| `O=C(Nc1ccccc1N1CCOC1=O)N1CCc2sccc2C1` | 10.5% |
| `Cc1csc(CCNc2ccc(C#N)cc2F)n1` | -3.665% |
| `[H][C@@]12CS(=O)(=O)C[C@]1([H])N(Cc1nc3ccccc3[nH]1)CCN2CCC` | 4.88% |
| `[H][C@]12CCN(C(=O)c3ccno3)C[C@@]1([H])OCCN(C1CCOCC1)C2` | -6.304% |
| `CC(C)(C)C(=O)NCCCc1nc2ccccc2[nH]1` | -0.5895% |
| `Cc1ccc(-c2c[nH]c([C@@H]3COCCN3Cc3ncc[nH]3)n2)cc1` | 5.677% |
| `O=C(O)C(F)(F)F.O=C(c1cccnc1)N1CCC2(CC1)CC(Oc1ccccc1)CO2` (centres undefined) | 4.428% |
| `Cc1ccc(-n2cnnn2)cc1NCC(=O)Nc1cc(F)ccc1F` | 11.42% |
| `CCc1cnc2c(c1Nc1cccc(OC)c1)c(=O)n(C)c(=O)n2C` | 27.54% |
| `CNS(=O)(=O)c1csc(C(=O)NCc2sccc2C)c1` | -13.95% |